Results published in article PMC5818054.
Results are given in words; binding and its absence hold for the method and conditions named. In cells and extracts the contact can be indirect. Some entries that bind do so weakly or less than the wild type.

Chains of the proteins cited; added tags and fusions are not shown.
UniProt Q9Y5K6: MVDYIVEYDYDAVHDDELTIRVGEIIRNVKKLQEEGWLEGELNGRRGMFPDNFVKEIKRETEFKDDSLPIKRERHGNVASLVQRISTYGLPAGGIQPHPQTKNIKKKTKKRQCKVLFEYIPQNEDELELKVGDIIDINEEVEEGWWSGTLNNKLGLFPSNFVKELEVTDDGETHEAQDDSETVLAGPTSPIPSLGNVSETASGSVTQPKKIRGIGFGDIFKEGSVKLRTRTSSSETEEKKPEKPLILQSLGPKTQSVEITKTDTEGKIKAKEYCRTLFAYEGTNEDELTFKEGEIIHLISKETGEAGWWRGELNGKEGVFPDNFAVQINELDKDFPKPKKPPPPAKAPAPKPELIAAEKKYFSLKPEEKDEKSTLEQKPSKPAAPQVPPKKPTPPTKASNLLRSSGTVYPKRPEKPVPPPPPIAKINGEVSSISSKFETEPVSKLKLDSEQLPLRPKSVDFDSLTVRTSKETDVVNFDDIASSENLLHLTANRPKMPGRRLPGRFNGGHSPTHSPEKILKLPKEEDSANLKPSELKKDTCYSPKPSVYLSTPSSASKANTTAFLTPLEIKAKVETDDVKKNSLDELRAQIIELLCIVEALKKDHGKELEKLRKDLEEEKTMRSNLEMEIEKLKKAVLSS

Biological target: full-length GFP–CD2AP (not stated (a Xenopus CD2AP and a CD2AP of unnamed species were cloned)) (UniProt Q9Y5K6)
Experiment: co-IP; anti-GFP immunoprecipitations from extracts of U2OS cells transiently transfected with GFP–CD2AP or GFP; immunoblot with anti-PAWS1

- binding: binds
B1: endogenous PAWS1 (U2OS) (protein, UniProt A6ND36-1 1-823)
chain: MAFSQVQCLDDNHVNWRSSESKPEFFYSEEQRLALEALVARGRDAFYEVLKRENIRDFLSELELKRILETIEVYDPGSEDPRGTGPSQGPEDNGVGDGEEASGADGVPIEAEPLPSLEYWPQKSDRSIPQLDLGWPDTIAYRGVTRASVYMQPPIDGQAHIKEVVRKMISQAQKVIAVVMDMFTDVDIFKDLLDAGFKRKVAVYIIVDESNVKYFLHMCERACMHLGHLKNLRVRSSGGTEFFTRSATKFKGALAQKFMFVDGDRAVCGSYSFTWSAARTDRNVISVLSGQVVEMFDRQFQELYLMSHSVSLKGIPMEKEPEPEPIVLPSVVPLVPAGTVAKKLVNPKYALVKAKSVDEIAKISSEKQEAKKPLGLKGPALAEHPGELPELLPPIHPGLLHLERANMFEYLPTWVEPDPEPGSDILGYINIIDPNIWNPQPSQMNRIKIRDTSQASAQHQLWKQSQDSRPRPEPCPPPEPSAPQDGVPAENGLPQGDPEPLPPVPKPRTVPVADVLARDSSDIGWVLELPKEEAPQNGTDHRLPRMAGPGHAPLQRQLSVTQDDPESLGVGLPNGLDGVEEEDDDDYVTLSDQDSHSGSSGRGPGPRRPSVASSVSEEYFEVREHSVPLRRRHSEQVANGPTPPPRRQLSAPHITRGTFVGPQGGSPWAQSRGREEADALKRMQAQRSTDKEAQGQQFHHHRVPASGTRDKDGFPGPPRYRSAADSVQSSTRNAGPAMAGPHHWQAKGGQVPRLLPDPGSPRLAQNARPMTDGRATEEHPSPFGIPYSKLSQSKHLKARTGGSQWASSDSKRRAQAPRDRKDP
